Measurements: patent US20250019430A1
Results are given in words; binding and its absence hold for the method and conditions named. Some binding calls cover weakened binding; strength is not graded here.

Sequences of proteins named here, by UniProt entry; tags and fusion partners are left off. A change or cut given only in a name is not applied to a line headed by its entry. Residues count along the entry.
UniProt Q9HD89: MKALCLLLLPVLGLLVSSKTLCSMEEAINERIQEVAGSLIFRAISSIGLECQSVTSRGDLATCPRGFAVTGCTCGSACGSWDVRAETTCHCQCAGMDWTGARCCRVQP
recombinant human resistin (peprotech, #450-19): residues 17-108 of Q9HD89
resistin antigen: residues 19-108 of Q9HD89

Assays:
[1] = molecular target: resistin antigen (UniProt Q9HD89); test: ELISA of Example 12
[2] = molecular target: recombinant human resistin (peprotech, #450-19) (human) (UniProt Q9HD89); test: ELISA, coated recombinant human resistin, IgG at 1, 10, 100 nM
[3] = molecular target: RETN-flag-His (human) (UniProt Q9HD89); test: ELISA, coated antigen, IgG at 1, 10, 100 nM

Row | Binder | binding [1] | binding [2] | binding [3]
1 | RETN-5A2_LS_2D07 (antibody, human IgG1, V domains shown) VH: QVQLVQSGAEGRKPGSSVKVSCKVSGDTFSSYAISWVRQAPGQGLEWMGGIIPIFGAADYAQKFKGRVTISADESTSTAYMELSSLRSEDTAVYYCAKGPDYYGSFDPWGQGTLITVSS VL: QSALTQPASVSGSPGQSVTISCTGTSSDIGRYNRVSWYQHHPGKAPKLIIYDVSNRPSGVSNRFSGSKSGNTASLTISGLQAGDESDYYCSAYTRSSTWVFGGGTKLTVLR | binds | binds | binds
2 | RETN-5A2_LS_2H10 (antibody, human IgG1, V domains shown) VH: QVQLVQSGAEGRKPGSSVKVSCKVSGDTFSSYAISWVRQAPGQGLEWMGGIIPIFGAADYAQKFKGRVTISADESTSTAYMELSSLRSEDTAVYYCAKGPDYYGSFDPWGQGTLITVSS VL: NFMLTQPASVSGSPGQSITISCTGSSSDVGGYNYVTWYQQHPGKAPQLIIYDVTKRPSGVSNRFSGSKSGNSASLTISGLQAEDEADYYCSSYSSSTFYVFGTGTKVTVLR | binds | binds | binds
3 | RETN-5A2 (antibody, human IgG1, V domains shown) VH: QVQLVQSGAEGRKPGSSVKVSCKVSGDTFSSYAISWVRQAPGQGLEWMGGIIPIFGAADYAQKFKGRVTISADESTSTAYMELSSLRSEDTAVYYCAKGPDYYGSFDPWGQGTLITVSS VL: DIQMTQSPSFLSASVGDRVTITCRASQYIGTYLAWYQQQPGKAPKLLIYGASILQNGVPSRFSGSASGTEFTLTISSLQPEDFATYYCQQADSFPLTFGGGTKVDIKR | – | binds | –
4 | RETN-5A2_LS_2B02 (antibody, human IgG1, V domains shown) VH: QVQLVQSGAEGRKPGSSVKVSCKVSGDTFSSYAISWVRQAPGQGLEWMGGIIPIFGAADYAQKFKGRVTISADESTSTAYMELSSLRSEDTAVYYCAKGPDYYGSFDPWGQGTLITVSS VL: DIQMTQSPGTLSLSAGERATLSCRASQSVRGSYLAWYQQKPGQAPRLLIYGTSSRAPGIPDRFSGSGSGTDFTLTISSLEPEDFAVYYCQQRGDWLYTFGQGTKVEIKR | binds | binds | –
5 | RETN-5A2_LS_2F11 (antibody, human IgG1, V domains shown) VH: QVQLVQSGAEGRKPGSSVKVSCKVSGDTFSSYAISWVRQAPGQGLEWMGGIIPIFGAADYAQKFKGRVTISADESTSTAYMELSSLRSEDTAVYYCAKGPDYYGSFDPWGQGTLITVSS VL: DIQMTQSPSSLSASVGDRVTITCRASQSIGTYLNWYQQKPGKAPKLLIYDASSLEDGVPSRFSGSGSGTDFTLTISSLQPEDSATYYCQQSYTMPLYTFGQGTKLEIKR | binds | binds | –
6 | RETN-5A2_LS_2G03 (antibody, human IgG1, V domains shown) VH: QVQLVQSGAEGRKPGSSVKVSCKVSGDTFSSYAISWVRQAPGQGLEWMGGIIPIFGAADYAQKFKGRVTISADESTSTAYMELSSLRSEDTAVYYCAKGPDYYGSFDPWGQGTLITVSS VL: DIQMTQSPSSLSASVGDRVTITCQASQHVSSYLNWYQQKPGKAPKLLIYAASNLQSGVPSRFSGSGSGTDFTLTISSLQPDDFATYYCQQYDSYSSVYTFGPGTKLDIKR | binds | binds | –
7 | RETN-5A2_LS_2E10 (antibody, human IgG1, V domains shown) VH: QVQLVQSGAEGRKPGSSVKVSCKVSGDTFSSYAISWVRQAPGQGLEWMGGIIPIFGAADYAQKFKGRVTISADESTSTAYMELSSLRSEDTAVYYCAKGPDYYGSFDPWGQGTLITVSS VL: DIQMTQSPSSLSASVGDRVTITCRTSQTITNYLNWYQQKPGRAPKLLIFDASNLETGVPSRFSGSGSGTDFTLTISSLQPEDFATYFCQQSYNPGYTFGQGTKLEIKR | binds | binds | –
